According to article PMC5844530, “Fosmetpantotenate (RE-024), a phosphopantothenate replacement therapy for pantothenate kinase-associated neurodegeneration: Mechanism of action and efficacy in nonclinical models” (PLoS ONE, 2018):
Where “and” joins values, the source holds several entries; their conditions need not be identical. Identical values can stand only once.

Test system: PanK2 knockdown cells (acetylated tubulin)
Test: Western blot analysis of acetylated tubulin
Type: cell-based, human
Details: 1 µM fosmetpantotenate, replicates 1-2
Method: After incubation, the cells were lysed in RIPA buffer containing 300 mM NaCl, 10 mM Tris HCl pH 8.0, 10 mM KCl, 1 mM ethylenediaminetetraacetic acid (EDTA), 1% Nonidet-P40, 1% sodium deoxycholate, 0.1% SDS, 1 mM phenylmethanesulfonyl fluoride, and protease inhibitor cocktail (11697498001, Roche, Indianapolis, IN), and sonicated on ice with a Branson 450 sonicator through 2 cycles of ten 2s pulses (1 min pause between cycles). Total protein concentration was determined using a Bio-Rad Protein Assay (500–0006, Biorad, Hercules, CA). Cell extracts were subjected to sodium dodecyl sulfate polyacrylamide gel electrophoresis (SDS-PAGE) analysis (4–12%, NP0335BOX, Life Technologies, Great Island, NY) and transferred to a nitrocellulose membrane (10401396, Whatman, Maidstone, UK). Immunostaining was accomplished by overnight incubation with primary antibodies followed by 1 h of incubation with dye-conjugated secondary antibodies according to the manufacturer’s instructions. Protein detection was achieved using an Infrared Odyssey system (LiCor, Lincoln, NE). Densitometric analysis of western blots was performed using ImageJ software; the statistical significance was determined using a t-test. Actin was used as a normalization probe.

COC(=O)CCNC(=O)[C@H](O)C(C)(C)COP(=O)(N[C@@H](C)C(=O)OC)Oc1ccccc1 (mixture of isomers) [Fosmetpantotenate]
Actin (quantification) (Experiment 1, DAY 1): 5408.033 and 5159.033 | Actin (quantification) (Experiment 1, DAY 3): 4810.74 and 4592.74 | Actin (quantification) (Experiment 1, DAY 5): 4608.619 and 5049.962 | Actin (quantification) (Experiment 2, DAY 1): 2488.811 and 2436.861 | Actin (quantification) (Experiment 2, DAY 3): 2169.355 and 1618.134 | Actin (quantification) (Experiment 2, DAY 5): 2220.104 and 2776.861
